In paper PMC4106063:
Results are given in words; binding and its absence hold for the method and conditions named. For part of these data: In cells and extracts the contact can be indirect. Some results given as binding are weak or reduced against the parent protein; the word gives no strength.

Chains of the proteins cited; added tags and fusions are not shown.
UniProt Q15911: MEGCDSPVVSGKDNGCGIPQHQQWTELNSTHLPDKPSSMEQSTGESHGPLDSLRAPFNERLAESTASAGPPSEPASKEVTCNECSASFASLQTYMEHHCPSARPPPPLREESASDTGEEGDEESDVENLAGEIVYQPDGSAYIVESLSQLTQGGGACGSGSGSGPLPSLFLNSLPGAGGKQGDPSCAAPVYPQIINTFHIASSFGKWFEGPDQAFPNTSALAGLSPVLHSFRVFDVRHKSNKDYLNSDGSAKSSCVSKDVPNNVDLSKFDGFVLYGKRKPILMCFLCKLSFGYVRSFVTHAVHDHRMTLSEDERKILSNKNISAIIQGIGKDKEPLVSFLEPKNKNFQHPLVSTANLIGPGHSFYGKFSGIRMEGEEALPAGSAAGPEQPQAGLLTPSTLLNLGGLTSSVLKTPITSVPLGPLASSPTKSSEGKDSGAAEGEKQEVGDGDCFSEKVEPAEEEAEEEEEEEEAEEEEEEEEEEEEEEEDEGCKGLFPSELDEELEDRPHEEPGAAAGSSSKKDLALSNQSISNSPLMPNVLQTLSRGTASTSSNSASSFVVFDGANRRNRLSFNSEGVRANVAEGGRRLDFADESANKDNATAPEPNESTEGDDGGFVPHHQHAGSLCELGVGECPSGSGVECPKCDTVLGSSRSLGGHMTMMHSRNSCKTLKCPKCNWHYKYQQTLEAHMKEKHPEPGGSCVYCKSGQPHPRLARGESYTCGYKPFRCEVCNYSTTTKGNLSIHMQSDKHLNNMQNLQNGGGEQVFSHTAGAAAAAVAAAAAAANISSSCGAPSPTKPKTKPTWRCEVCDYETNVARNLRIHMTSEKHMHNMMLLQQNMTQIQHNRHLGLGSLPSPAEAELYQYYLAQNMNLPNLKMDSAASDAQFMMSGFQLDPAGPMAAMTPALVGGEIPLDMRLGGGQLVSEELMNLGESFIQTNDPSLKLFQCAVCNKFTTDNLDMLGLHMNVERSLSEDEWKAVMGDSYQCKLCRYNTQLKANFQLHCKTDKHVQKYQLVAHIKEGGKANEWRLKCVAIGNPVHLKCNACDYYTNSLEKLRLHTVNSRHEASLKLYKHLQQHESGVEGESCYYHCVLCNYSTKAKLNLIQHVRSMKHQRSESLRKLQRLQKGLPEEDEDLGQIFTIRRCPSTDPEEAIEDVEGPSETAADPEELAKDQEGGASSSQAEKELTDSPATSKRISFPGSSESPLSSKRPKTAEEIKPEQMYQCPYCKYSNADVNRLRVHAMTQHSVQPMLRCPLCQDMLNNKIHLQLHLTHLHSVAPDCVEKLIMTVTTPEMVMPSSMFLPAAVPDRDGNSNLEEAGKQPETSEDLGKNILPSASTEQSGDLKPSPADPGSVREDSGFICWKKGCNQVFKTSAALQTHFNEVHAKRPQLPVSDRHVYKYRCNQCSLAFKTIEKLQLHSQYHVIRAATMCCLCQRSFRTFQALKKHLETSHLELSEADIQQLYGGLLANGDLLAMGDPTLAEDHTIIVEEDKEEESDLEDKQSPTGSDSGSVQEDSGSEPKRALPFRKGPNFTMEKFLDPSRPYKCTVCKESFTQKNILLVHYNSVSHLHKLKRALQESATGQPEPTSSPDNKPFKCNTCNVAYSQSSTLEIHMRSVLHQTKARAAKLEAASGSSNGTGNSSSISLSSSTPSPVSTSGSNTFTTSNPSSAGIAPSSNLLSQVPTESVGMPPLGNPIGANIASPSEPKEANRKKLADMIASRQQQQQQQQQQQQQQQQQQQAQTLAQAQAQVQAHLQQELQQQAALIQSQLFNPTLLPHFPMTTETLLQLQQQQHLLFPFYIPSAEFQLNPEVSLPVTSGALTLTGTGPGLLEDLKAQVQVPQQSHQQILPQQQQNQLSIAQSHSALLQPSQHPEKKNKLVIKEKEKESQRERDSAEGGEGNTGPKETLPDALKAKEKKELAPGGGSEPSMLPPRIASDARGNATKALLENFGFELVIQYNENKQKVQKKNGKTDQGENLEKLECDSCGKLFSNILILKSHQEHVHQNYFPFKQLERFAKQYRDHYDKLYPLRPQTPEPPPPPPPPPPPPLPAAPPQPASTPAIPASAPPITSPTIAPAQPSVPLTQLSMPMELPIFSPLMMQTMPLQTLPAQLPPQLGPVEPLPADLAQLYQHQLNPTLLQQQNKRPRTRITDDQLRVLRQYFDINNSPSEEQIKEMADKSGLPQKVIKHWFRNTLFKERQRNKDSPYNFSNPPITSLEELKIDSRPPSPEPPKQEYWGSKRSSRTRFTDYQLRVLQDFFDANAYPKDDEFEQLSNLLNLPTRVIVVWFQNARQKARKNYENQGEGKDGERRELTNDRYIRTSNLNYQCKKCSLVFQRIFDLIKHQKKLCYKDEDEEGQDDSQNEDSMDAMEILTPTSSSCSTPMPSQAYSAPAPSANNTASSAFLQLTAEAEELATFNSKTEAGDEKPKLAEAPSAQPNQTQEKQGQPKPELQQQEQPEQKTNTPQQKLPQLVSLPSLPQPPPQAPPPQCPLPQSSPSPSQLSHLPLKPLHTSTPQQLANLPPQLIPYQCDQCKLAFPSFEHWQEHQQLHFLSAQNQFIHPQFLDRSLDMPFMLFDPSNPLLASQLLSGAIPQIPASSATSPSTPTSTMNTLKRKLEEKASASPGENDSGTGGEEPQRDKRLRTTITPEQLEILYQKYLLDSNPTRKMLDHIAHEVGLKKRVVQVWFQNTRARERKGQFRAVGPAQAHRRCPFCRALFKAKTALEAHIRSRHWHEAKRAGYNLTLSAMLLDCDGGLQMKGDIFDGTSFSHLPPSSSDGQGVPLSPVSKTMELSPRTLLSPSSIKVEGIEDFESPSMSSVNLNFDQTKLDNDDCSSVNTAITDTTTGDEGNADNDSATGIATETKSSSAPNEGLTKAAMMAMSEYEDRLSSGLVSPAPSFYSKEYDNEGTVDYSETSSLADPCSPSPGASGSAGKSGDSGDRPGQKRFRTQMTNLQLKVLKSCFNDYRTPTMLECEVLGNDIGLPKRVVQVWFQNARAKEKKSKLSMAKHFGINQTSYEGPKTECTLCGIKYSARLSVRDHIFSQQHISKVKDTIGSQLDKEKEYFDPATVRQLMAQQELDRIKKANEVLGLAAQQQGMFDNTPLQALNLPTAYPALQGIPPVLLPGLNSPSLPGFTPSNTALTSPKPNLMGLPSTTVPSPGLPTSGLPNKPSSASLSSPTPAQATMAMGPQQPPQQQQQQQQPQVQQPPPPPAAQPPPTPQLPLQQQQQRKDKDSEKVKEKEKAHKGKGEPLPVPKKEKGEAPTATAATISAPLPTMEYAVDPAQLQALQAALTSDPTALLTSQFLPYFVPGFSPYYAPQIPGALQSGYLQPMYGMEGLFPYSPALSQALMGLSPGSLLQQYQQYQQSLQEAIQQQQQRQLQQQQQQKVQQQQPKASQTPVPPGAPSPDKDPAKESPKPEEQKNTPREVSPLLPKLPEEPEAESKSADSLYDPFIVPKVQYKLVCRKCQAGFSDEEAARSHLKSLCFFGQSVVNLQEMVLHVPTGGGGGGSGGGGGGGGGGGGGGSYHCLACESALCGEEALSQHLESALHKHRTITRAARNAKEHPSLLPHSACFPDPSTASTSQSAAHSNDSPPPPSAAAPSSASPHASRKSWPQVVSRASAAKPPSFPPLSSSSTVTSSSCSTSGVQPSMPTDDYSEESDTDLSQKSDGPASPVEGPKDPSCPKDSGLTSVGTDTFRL
UniProt Q15796: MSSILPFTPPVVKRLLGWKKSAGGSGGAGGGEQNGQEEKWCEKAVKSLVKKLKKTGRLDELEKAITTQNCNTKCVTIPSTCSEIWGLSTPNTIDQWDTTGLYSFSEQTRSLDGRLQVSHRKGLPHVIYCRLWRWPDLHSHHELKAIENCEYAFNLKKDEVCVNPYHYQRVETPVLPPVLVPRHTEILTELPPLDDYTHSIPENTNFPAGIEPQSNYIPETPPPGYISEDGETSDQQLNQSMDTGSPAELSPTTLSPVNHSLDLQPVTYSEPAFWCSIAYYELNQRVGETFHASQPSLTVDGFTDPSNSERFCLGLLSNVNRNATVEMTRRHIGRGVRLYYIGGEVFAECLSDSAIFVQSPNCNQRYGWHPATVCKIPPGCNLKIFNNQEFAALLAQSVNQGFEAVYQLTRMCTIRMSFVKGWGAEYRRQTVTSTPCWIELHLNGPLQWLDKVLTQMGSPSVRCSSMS
UniProt P84022: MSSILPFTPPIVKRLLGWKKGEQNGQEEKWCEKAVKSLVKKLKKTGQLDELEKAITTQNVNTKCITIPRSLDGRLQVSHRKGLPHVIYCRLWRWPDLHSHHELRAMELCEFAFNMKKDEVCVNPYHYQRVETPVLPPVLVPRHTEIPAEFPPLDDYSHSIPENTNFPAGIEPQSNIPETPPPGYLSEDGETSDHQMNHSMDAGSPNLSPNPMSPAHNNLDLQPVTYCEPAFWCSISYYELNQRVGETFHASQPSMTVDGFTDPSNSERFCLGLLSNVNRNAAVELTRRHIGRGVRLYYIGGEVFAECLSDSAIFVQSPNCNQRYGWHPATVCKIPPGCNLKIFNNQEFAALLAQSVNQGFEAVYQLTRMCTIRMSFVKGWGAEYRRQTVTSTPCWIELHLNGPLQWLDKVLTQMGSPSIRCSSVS

How the values were obtained:
[1] = molecular target: Myc-ATBF1 (AT motif-binding factor-1) (UniProt Q15911); test: co-IP; data not shown: ATBF1 with Smad2; details not told
[2] = molecular target: Myc-ATBF1 (AT motif-binding factor-1) (UniProt Q15911); test: co-IP; COS7 cells transfected with Flag-Smad3 and Myc-ATBF1, with or without ALK5ca/V5; lysis in TNE buffer (10 mM Tris pH 7.4, 150 mM NaCl, 1 mM EDTA, 1% NP-40); IP with anti-Myc, IB with anti-Flag; 4°C
[3] = molecular target: HA-ATBF1 (AT motif-binding factor-1) (UniProt Q15911); test: DNA affinity precipitation (DNAP); lysates of transfected COS7 cells in TNE buffer mixed, incubated with biotinylated (AT-motif)3 DNA for 2 h at 4°C, precipitated with streptavidin agarose; IB with anti-Flag or anti-HA

binding [1] | binding [2] | binding [3] | Substance
binds |  |  | Flag-Smad2 (from UniProt Q15796 1-467)
 | binds | binds | Flag-Smad3 (from UniProt P84022 1-425)
